According to publication PMC8099784 (Redox Biology, 2021):

What was measured:
[1] = system: A2780; experiment: MTT cell viability assay, A2780 cells; type: cell-based, human; settings: read-out: IC50 (μM) A2780, cytotoxicity, mean ± SD
Summary of the method: (§1)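 Cells kept in RPMI 1640 with 10% FBS and penicillin/streptomycin at 37 °C, 5% CO2. Seeded at 5 × 10^3 cells/well overnight, exposed to a concentration series for the stated time. MTT (5 mg/mL) added for 4 h, crystals dissolved in DMSO, absorbance read at 570 nm. Normalized to DMSO vehicle; three independent runs; IC50 by curve fitting.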

[2] = system: A549; experiment: MTT cell viability assay, A549 cells; type: cell-based, human; settings: read-out: IC50 (μM) A549, cytotoxicity, mean ± SD
Summary of the method: as §1

Compound `N.N.[Cl][Pt][Cl]` [Cisplatin] has an IC50 [1] of 9.3 ± 0.8 µM and an IC50 [2] of 9.1 ± 0.6 µM.
